# Reference: paper PMC7819943, “Rice protein-binding microarrays: a tool to detect cis-acting elements near promoter regions in rice”
# Amino acid sequences for entries named in this document (tags omitted).
# UniProt Q0JBA9, entry or part of it: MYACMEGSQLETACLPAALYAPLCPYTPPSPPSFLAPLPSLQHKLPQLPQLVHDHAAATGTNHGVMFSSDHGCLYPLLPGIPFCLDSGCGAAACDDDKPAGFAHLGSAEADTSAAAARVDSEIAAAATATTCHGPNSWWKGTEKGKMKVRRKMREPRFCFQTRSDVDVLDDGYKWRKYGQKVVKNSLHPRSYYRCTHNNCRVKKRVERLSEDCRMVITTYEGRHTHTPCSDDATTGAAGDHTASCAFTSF
# The other results are listed elsewhere or left out.
# Target: OsWRKY34 (Oryza sativa, UniProt Q0JBA9 1-250)
# Assay: protein-binding microarray (RPBM); PBS, 2% BSA, 51.3 ng/ul salmon testes DNA, 50 uM zinc acetate, 200 nM TF, 25 C, 1 h; high values mean tight binding
# Settings: protein: recombinant; tags: N-terminal polyhistidine and DsRed monomer fusion (pET32a); label: CyDye5-dUTP incorporated in the synthesized complementary strand; 3' TTTTT single-stranded linker to array surface; dsDNA, one strand shown
# Outline: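 Transcription factors, each fused N-terminally to a polyhistidine tag and DsRed, were expressed in E. coli BL21-CodonPlus and purified on Ni–NTA. A custom Agilent array was made double-stranded by primer extension with Cy5-dUTP and blocked with 2% BSA. It was incubated with 200 nM protein in PBS, 2% BSA, salmon testes DNA and 50 µM zinc acetate at 25 °C for 1 h, then washed. The binding signal is per-feature fluorescence intensity (arbitrary units) read on an Axon 4000B scanner.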
row,Sequence,binding signal
1,CAGGGGCGGCGGCGTCTTCATCGTCAATTATGGGGTAATGCGGAGTCACCTAGTGCAG,8930 fluorescence intensity (a.u.)
2,ATTCTTTTGTATATAGTTCTTGATACAATTCCGTATTTTTCGGAGTCACCTAGTGCAG,8720 fluorescence intensity (a.u.)
3,ACAAAAGGTACAATCAGTGCTATCCTGTACGCGGAACAATCGGAGTCACCTAGTGCAG,8110 fluorescence intensity (a.u.)
4,ATCAATGTTTGCGGCCAATCCCGTCTCCTTTTCGCTTATTCGGAGTCACCTAGTGCAG,11000 fluorescence intensity (a.u.)
5,ACACACCATCGTACACCATATTTTACTGGCTATCATTTACCGGAGTCACCTAGTGCAG,9030 fluorescence intensity (a.u.)
6,CGCCACCACTGCTGCCATCGTCAACATCCTATATGATTTTCGGAGTCACCTAGTGCAG,13400 fluorescence intensity (a.u.)
7,CGAGATACCGTACTTGTTCTACTACCTATGGATGATTTTCCGGAGTCACCTAGTGCAG,9000 fluorescence intensity (a.u.)
8,CCTGTGCGCTGGATCATCCGTCGGTCGCCGCTATCCTCTCCGGAGTCACCTAGTGCAG,8740 fluorescence intensity (a.u.)
9,GCTTTTTCTGTTGCAATCGTTGTTCTTGGGGTCCCAAATCCGGAGTCACCTAGTGCAG,9520 fluorescence intensity (a.u.)
10,CTGACACGCCCAGCCGTCCCGTTCCATCGCCGCGCTGCTCCGGAGTCACCTAGTGCAG,10700 fluorescence intensity (a.u.)
11,GCCTATGTTCTATTTCTGTTTCAGTTCAGACAAAATCAGACGGAGTCACCTAGTGCAG,8260 fluorescence intensity (a.u.)
12,CAAGTCCATGTCATCCTCGTTCCTGTGGTGCCCCATGTCGCGGAGTCACCTAGTGCAG,8200 fluorescence intensity (a.u.)
13,GTCGTCCGCTAGTCCCTCTATAGAATCCGGTCTCCGATTCCGGAGTCACCTAGTGCAG,13800 fluorescence intensity (a.u.)
14,AGTTACATTGAAAGTCACCGCACACATTCATTCCATAAAGCGGAGTCACCTAGTGCAG,8750 fluorescence intensity (a.u.)
15,GGTTACTGTCCAACCGCCGCTACTGCCACTTTTCGCGGGACGGAGTCACCTAGTGCAG,10200 fluorescence intensity (a.u.)
16,CTCTTTTCCCACTGTGTTGCTTGCCAGTTGCCATTGCAATCGGAGTCACCTAGTGCAG,9270 fluorescence intensity (a.u.)
17,ATAAATGACGCCGTTGATTTTTTCTCACATGTTTGACCATCGGAGTCACCTAGTGCAG,10500 fluorescence intensity (a.u.)
18,GGCGGGGCACGGCGGCGGCGGCGCGTGGGAGTACCTCTGCCGGAGTCACCTAGTGCAG,8060 fluorescence intensity (a.u.)
19,ACACCATCAATGTGGCACACCCTAAATTCTCTCCATGCCTCGGAGTCACCTAGTGCAG,8110 fluorescence intensity (a.u.)
20,GCCGCGCCCCGATTTGAACCCTCGCCGCCTCGCCTCGCCTCGGAGTCACCTAGTGCAG,10200 fluorescence intensity (a.u.)
21,CCATGGCTCTTCCGCTCGATCGCTCCGGCTCGCCATGACTCGGAGTCACCTAGTGCAG,9060 fluorescence intensity (a.u.)

row,Sequence,binding signal
1,GAGGAATAATTGTCGCTCGATTGCTTGCTTGGGTTGGGTTCGGAGTCACCTAGTGCAG,12000 fluorescence intensity (a.u.)
2,GGTTTCCTCATATGCCCTTGAAAATTTGCTATTCCTCTGTCGGAGTCACCTAGTGCAG,22700 fluorescence intensity (a.u.)
3,CATATTCCAGACTTCCAGTCATGTGTCCAGTCCAATTGACCGGAGTCACCTAGTGCAG,8820 fluorescence intensity (a.u.)
4,CTGGATACTTGTGTTTATACTTCATCGACTATCTACATGGCGGAGTCACCTAGTGCAG,8500 fluorescence intensity (a.u.)
5,CTTGTCACTATCCATGTACCTCTCTCATTTGGTACATAAACGGAGTCACCTAGTGCAG,8540 fluorescence intensity (a.u.)
6,AAGAACAAGTCTCCGTGTTCGTGTTCGTTGTATGTTTTCCCGGAGTCACCTAGTGCAG,9920 fluorescence intensity (a.u.)
7,CTCTCTTGGTATTTCACTCTATCTCTTCGTGTGGAGAAGACGGAGTCACCTAGTGCAG,8980 fluorescence intensity (a.u.)
8,AGTCTGCGCCATGTGTGCTCTTCTTCGACGAGCTTGACTCCGGAGTCACCTAGTGCAG,8230 fluorescence intensity (a.u.)
9,AAACTCTTCGTTCTTATTACTTCGGATCCCATTAGAATGCCGGAGTCACCTAGTGCAG,8410 fluorescence intensity (a.u.)
10,TTTCATTCTAACATGTTAATTTCTAAGCCTTAATTAACATCGGAGTCACCTAGTGCAG,8450 fluorescence intensity (a.u.)
11,TAAGGTCATTGGTTCCAGTTTTTCCCGGTTCAACCGCCGGCGGAGTCACCTAGTGCAG,9480 fluorescence intensity (a.u.)
12,CCATTCTTATCTCCATCTGCTTCAAACATAAAGTCCACACCGGAGTCACCTAGTGCAG,10100 fluorescence intensity (a.u.)
13,GCACTGCTCGAACTTTGTACTCGCCCGTGAGCTTGACAATCGGAGTCACCTAGTGCAG,9230 fluorescence intensity (a.u.)
14,GTTCTTGATCTCTCTTCTGCTGGTTACGAAAAATTTGTGTCGGAGTCACCTAGTGCAG,10700 fluorescence intensity (a.u.)
15,ACAGATCACCGGCTACAATTCGCGAGCTCCATCAATCCCACGGAGTCACCTAGTGCAG,11700 fluorescence intensity (a.u.)
16,TACGCACCCGTCGCCATCCACACCCCACCATTTTCATCCTCGGAGTCACCTAGTGCAG,9030 fluorescence intensity (a.u.)
17,ATCCTTTCACATATGTGTGTGCTGTGATTTTTTTTCTTTCCGGAGTCACCTAGTGCAG,11300 fluorescence intensity (a.u.)
18,TCCTTCTCTGTCTTTGGTTTCGATGGTGCGGTATCTCTGACGGAGTCACCTAGTGCAG,8560 fluorescence intensity (a.u.)
19,ATTGCCGGCGCCGCCTCCGCCTCCATCCTACCGGCCGCATCGGAGTCACCTAGTGCAG,11200 fluorescence intensity (a.u.)
20,GAAAGCTCTGATTATCTCCATCTACGGTTCTGCTTCAAGCCGGAGTCACCTAGTGCAG,8350 fluorescence intensity (a.u.)
21,AACCCTCACCATTTTACCATGCTCGCAATTCGTTCATCCCCGGAGTCACCTAGTGCAG,11000 fluorescence intensity (a.u.)

# In another format: results already given.
row	Sequence	binding signal
1	GAGGAATAATTGTCGCTCGATTGCTTGCTTGGGTTGGGTTCGGAGTCACCTAGTGCAG	12000 fluorescence intensity (a.u.)
2	GGTTTCCTCATATGCCCTTGAAAATTTGCTATTCCTCTGTCGGAGTCACCTAGTGCAG	22700 fluorescence intensity (a.u.)
3	CATATTCCAGACTTCCAGTCATGTGTCCAGTCCAATTGACCGGAGTCACCTAGTGCAG	8820 fluorescence intensity (a.u.)
4	CTGGATACTTGTGTTTATACTTCATCGACTATCTACATGGCGGAGTCACCTAGTGCAG	8500 fluorescence intensity (a.u.)
5	CTTGTCACTATCCATGTACCTCTCTCATTTGGTACATAAACGGAGTCACCTAGTGCAG	8540 fluorescence intensity (a.u.)
6	AAGAACAAGTCTCCGTGTTCGTGTTCGTTGTATGTTTTCCCGGAGTCACCTAGTGCAG	9920 fluorescence intensity (a.u.)
7	CTCTCTTGGTATTTCACTCTATCTCTTCGTGTGGAGAAGACGGAGTCACCTAGTGCAG	8980 fluorescence intensity (a.u.)
8	AGTCTGCGCCATGTGTGCTCTTCTTCGACGAGCTTGACTCCGGAGTCACCTAGTGCAG	8230 fluorescence intensity (a.u.)
9	AAACTCTTCGTTCTTATTACTTCGGATCCCATTAGAATGCCGGAGTCACCTAGTGCAG	8410 fluorescence intensity (a.u.)
10	TTTCATTCTAACATGTTAATTTCTAAGCCTTAATTAACATCGGAGTCACCTAGTGCAG	8450 fluorescence intensity (a.u.)
11	TAAGGTCATTGGTTCCAGTTTTTCCCGGTTCAACCGCCGGCGGAGTCACCTAGTGCAG	9480 fluorescence intensity (a.u.)
12	CCATTCTTATCTCCATCTGCTTCAAACATAAAGTCCACACCGGAGTCACCTAGTGCAG	10100 fluorescence intensity (a.u.)
13	GCACTGCTCGAACTTTGTACTCGCCCGTGAGCTTGACAATCGGAGTCACCTAGTGCAG	9230 fluorescence intensity (a.u.)
